Drawing on US4260607A, “Cephalosporin esters” (Takeda Chemical Industries, Ltd., priority 1976, dated 1981), this text covers concentration for one compound.

A short description of the series: in vivo. The settings on record: rat, po, 100 mg/kg.

For the compound `CC1=C(C(=O)O)N2C(=O)[C@@H](NC(=O)[C@H](N)c3ccccc3)[C@H]2SC1` [Cephalexin, reference compound], the concentration at 0.5 h was 26300 ng/mL, the concentration at 1 h worked out at 28900 ng/mL, the concentration at 2 h turned out to be 16300 ng/mL and the concentration at 4 h is 7900 ng/mL.
